Results deposited as PubChem BioAssay AID1259425 (University of Nebraska Medical Center, 2018)

- Aim: 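Seek colon cancer weak points whose silencing resembles KSR1 loss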 (primary screen)
- Cell system: HCT116 human colon cancer cells
- Reagent: siRNA pool against human genes, 50 nM siRNA
- Detection: 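After 50 nM siRNA pool, branched-DNA assay measures six marker transcripts per well, minus blank, normalised to the geometric mean of two housekeeping transcripts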
- Scale: BNIP3L mRNA: higher = more BNIP3L transcript after knockdown; NDRG1 mRNA: higher = more NDRG1 transcript after knockdown; BNIP3 mRNA: higher = more BNIP3 transcript after knockdown; ALDOC mRNA: higher = more ALDOC transcript after knockdown; ACSL5 mRNA: higher = more ACSL5 transcript after knockdown
Here is one part, drawn at random, of about 14,000 deposited reagents. No sequences are given here. The record does not give: the time to read-out.

| gene knocked down | BNIP3L mRNA, set 1 | NDRG1 mRNA, set 1 | BNIP3 mRNA, set 1 | ALDOC mRNA, set 1 | ACSL5 mRNA, set 1 |
| --- | --- | --- | --- | --- | --- |
| KCNJ3 (potassium inwardly rectifying channel subfamily J member 3) | 0.0887 | 0.106 | 0.305 | 0.0212 | 0.0897 |
| FRG1 (FSHD region gene 1) | 0.0851 | 0.249 | 0.315 | 0.0182 | 0.153 |
| LTN1 (listerin E3 ubiquitin protein ligase 1) | 0.154 | 0.445 | 0.652 | 0.0387 | 0.277 |
| ZFP91 (ZFP91 zinc finger protein, atypical E3 ubiquitin ligase) | 0.0913 | 0.152 | 0.302 | 0.0236 | 0.32 |
| FST (follistatin) | 0.0714 | 0.0795 | 0.244 | 0.0215 | 0.0815 |
| PRLH (prolactin releasing hormone) | 0.159 | 0.29 | 0.39 | 0.0467 | 0.427 |
| CBLB (Cbl proto-oncogene B) | 0.107 | 0.0922 | 0.34 | 0.0405 | 0.172 |
| BPIFA4P (BPI fold containing family A member 4, pseudogene) | 0.0848 | 0.274 | 0.387 | 0.0773 | 0.148 |
| TLE6 (TLE family member 6, subcortical maternal complex member) | 0.264 | 0.322 | 0.47 | 0.0396 | 0.405 |
| ATF7IP (activating transcription factor 7 interacting protein) | 0.0952 | 0.167 | 0.307 | 0.0124 | 0.276 |
| KCNJ14 (potassium inwardly rectifying channel subfamily J member 14) | 0.103 | 0.162 | 0.303 | 0.0358 | 0.036 |
| PTPDC1 (protein tyrosine phosphatase domain containing 1) | 0.0567 | 0.108 | 0.266 | 0.0309 | 0.172 |
| CLCN2 (chloride voltage-gated channel 2) | 0.146 | 0.145 | 0.343 | 0.0456 | 0.378 |
| CES3 (carboxylesterase 3) | 0.17 | 0.194 | 0.287 | 0.0529 | 0.19 |

A few values from above:
ZFP91 (ZFP91 zinc finger protein, atypical E3 ubiquitin ligase), ALDOC mRNA, set 1 = 0.0236
CLCN2 (chloride voltage-gated channel 2), BNIP3L mRNA, set 1 → 0.146

Further entries follow:
| gene knocked down | BNIP3L mRNA, set 1 | NDRG1 mRNA, set 1 | BNIP3 mRNA, set 1 | ALDOC mRNA, set 1 | ACSL5 mRNA, set 1 |
| --- | --- | --- | --- | --- | --- |
| SLC26A1 | 0.0348 | 0.269 | 0.117 | 0.0129 | 0.268 |
| FANCC (FA complementation group C) | 0.179 | 0.33 | 0.296 | 0.0137 | 0.337 |
| ELSPBP1 (epididymal sperm binding protein 1) | 0.131 | 0.136 | 0.251 | 0.0618 | 0.115 |
| USP18 (ubiquitin specific peptidase 18) | 0.0833 | 0.111 | 0.226 | 0.00856 | 0.128 |
| FAHD2A (fumarylacetoacetate hydrolase domain containing 2A) | 0.0429 | 0.0791 | 0.355 | 0.0215 | 0.167 |
| NIPSNAP3A (nipsnap homolog 3A) | 0.063 | 0.0771 | 0.361 | 0.0155 | 0.204 |
| WAPL (WAPL cohesin release factor) | 0.156 | 0.32 | 0.416 | 0.0425 | 0.222 |
| SUGCT (succinyl-CoA:glutarate-CoA transferase) | 0.251 | 0.197 | 0.362 | 0.0507 | 0.5 |
| OR51B4 (olfactory receptor family 51 subfamily B member 4) | 0.128 | 0.239 | 0.319 | 0.0558 | 0.185 |
| RPS24 (ribosomal protein S24) | 0.118 | 0.168 | 0.341 | 0.0167 | 0.0951 |
| BBS10 (Bardet-Biedl syndrome 10) | 0.211 | 0.361 | 0.364 | 0.0464 | 0.309 |
| COG5 (component of oligomeric golgi complex 5) | 0.152 | 0.33 | 0.381 | 0.0198 | 0.185 |
| CCDC59 (coiled-coil domain containing 59) | 0.125 | 0.369 | 0.166 | 0.0181 | 0.132 |
| RAB3A (RAB3A, member RAS oncogene family) | 0.0873 | 0.141 | 0.232 | 0.0241 | 0.13 |
| ARHGAP15 (Rho GTPase activating protein 15) | 0.148 | 0.101 | 0.197 | 0.0328 | 0.1 |
| IRF5 (interferon regulatory factor 5) | 0.134 | 0.0982 | 0.37 | 0.00992 | 0.0887 |
| HMGCR (3-hydroxy-3-methylglutaryl-CoA reductase) | 0.0642 | 0.144 | 0.28 | 0.0247 | 0.121 |
| GRN (granulin precursor) | 0.0924 | 0.268 | 0.225 | 0.0566 | 0.083 |
| CEP78 (centrosomal protein 78) | 0.226 | 0.227 | 0.328 | 0.151 | 0.251 |
| ACR (acrosin) | 0.0415 | 0.0751 | 0.404 | 0.00383 | 0.172 |
